From PubChem BioAssay AID485314 (National Center for Advancing Translational Sciences (NCATS), 2010)
“And” between values parts separate entries of the source, which are not always exact repeats. Equal entries are not always repeated. Among all 340,000 compounds or so, about 4,500 (1.3%) were called active. Inconclusive results, whose numbers are uncertain, are shown with a selection of clear calls. Calls come from the whole dose curve; as a rule, active = well fitted inhibition curve with a large enough effect; inconclusive = small, poorly fitted or top-dose-only effect, or another doubt; inactive = no such curve, though single readings can be large or run the other way. Potencies beside an inconclusive call are fits to weak or partial responses and may not hold up.

Each molecule was assayed against DNA polymerase beta (Homo sapiens) (UniProt P06746) (assay: qHTS Assay for Inhibitors of DNA Polymerase Beta). Conditions: Pol beta primer extension/strand displacement, fluorescence kinetic; activity change, negative = inhibition: at 114 µM (top of the series).
Outline: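 Pol beta (10 nM) and compounds were preincubated 15 min at room temperature, then 50 nM substrate (final) started primer extension/strand displacement. Reads were taken at 0 and 10 min; concentration-response data were fitted to a four-parameter Hill equation.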
% is set by controls: 0 for no effect and ±100 for the full control effect; potency is the fitted concentration of half-maximal effect.

Q: Which Potency does the source give for `O=C1/C(=C/c2ccccc2Cl)N2CCC1CC2` here?
A: inactive

Q: With `COc1ccc(C(c2c(O)c3ccccc3oc2=O)c2c(C)n(C)n(-c3ccccc3)c2=O)cc1` (stereo not drawn) as the molecule, how does the Potency read?
A: inconclusive: 79.4 µM [inhibitor, single point]

Q: With `COc1ccc(S(=O)(=O)NC(CC(=O)N2CCc3ccccc32)c2ccco2)cc1` (stereo not drawn) as the molecule, how does the Potency read?
A: inconclusive: 89.1 µM [inhibitor, single point]

Q: For `CC(C)CS(=O)(=O)C1=NN2C(=N)/C(=C\c3ccc(OC(=O)c4ccco4)cc3)C(=O)N=C2S1`, which Potency is on record?
A: active: 44.7 µM

Q: Which Potency does the source give for `Cc1c2ccncc2c(C)c2c1[nH]c1ccccc12` here?
A: active: 15.8 µM and active: 3.98 µM

Q: With `CC[C@@]1(O)C(=O)OCc2c1cc1n(c2=O)Cc2cc3c(NC(=O)CN)cccc3nc2-1` as the molecule, how does the Potency read?
A: inconclusive: 63.1 µM [inhibitor, single point]

Q: With `OCC#CC[N+]1(CC#Cc2ccccc2)CCCC1` as the molecule, how does the Potency read?
A: inconclusive: 89.1 µM [inhibitor, single point]

Q: How did the activity change, negative = inhibition turn out when `O=c1[nH]c(=O)n(C2CCCCC2)c(O)c1/C=C/C=Nc1ccccc1` was run?
A: inconclusive: -43.5% [inhibitor]

Q: Which Potency does the source give for `Cn1cc(/C=C(\C(=O)O)C(C(=O)O)=C2CCCCC2)c2ccccc21` here?
A: inconclusive: 56.2 µM [inhibitor, partial curve]

Q: With `CN1CCN(C(=O)COc2ccc(Oc3ccccc3)cc2)CC1` as the molecule, how does the Potency read?
A: inconclusive: 0.316 µM [inhibitor, full curve, poor fit]

Q: With `CCOc1ccc(-c2cc(C)[n+](CCc3ccc(OC)c(OC)c3)c(-c3ccc(OCC)cc3)c2)cc1` as the molecule, how does the Potency read?
A: inconclusive: 100 µM [inhibitor, single point]

Q: How did the Potency turn out when `C=CCN1C(=O)NC(=O)/C(=C/c2ccc(N(C)C)c(Br)c2)C1=O` was run?
A: inactive

Q: With `CCn1cc(CN(C)S(=O)(=O)c2ccc3ccccc3c2)c(C)n1` as the molecule, how does the Potency read?
A: inconclusive: 89.1 µM [inhibitor, single point]

Q: How did the Potency turn out when `CCCCCCOC(=O)c1ccccc1N` was run?
A: inconclusive: 79.4 µM [inhibitor, single point]

Q: `CCCCCCCCCCCCCC(=O)O[C@@H]1[C@@H](C)[C@@]2(O)[C@@H](C=C(CO)C[C@@]3(O)C(=O)C(C)=C[C@@H]23)C2C(C)(C)[C@@]21OC(C)=O` (stereo partly drawn) was tested. Which Potency did it give?
A: inactive

Q: With `COc1ccc(C(=O)N2CCC3(CC2)OCCO3)cc1` as the molecule, how does the Potency read?
A: inconclusive: 8.91 µM [inhibitor, full curve, poor fit]

Q: Which Potency does the source give for `Cc1cc(N2CCCCC2)ccc1C=C1C(=O)N(C)C(=S)N(C)C1=O` here?
A: inactive

Q: `CC[C@@]1(O)C(=O)OCc2c1cc1n(c2=O)Cc2cc3c(N)cccc3nc2-1` was tested. Which Potency did it give?
A: active: 50.1 µM
